In article PMC7819943, “Rice protein-binding microarrays: a tool to detect cis-acting elements near promoter regions in rice” one finds binding signal data, which are given here for 54 sequences.

The list shows a part of the results.

This assay concerns the target T1, OsSMF1 (Oryza sativa, UniProt Q6ZLB0 1-436).
T1 sequence: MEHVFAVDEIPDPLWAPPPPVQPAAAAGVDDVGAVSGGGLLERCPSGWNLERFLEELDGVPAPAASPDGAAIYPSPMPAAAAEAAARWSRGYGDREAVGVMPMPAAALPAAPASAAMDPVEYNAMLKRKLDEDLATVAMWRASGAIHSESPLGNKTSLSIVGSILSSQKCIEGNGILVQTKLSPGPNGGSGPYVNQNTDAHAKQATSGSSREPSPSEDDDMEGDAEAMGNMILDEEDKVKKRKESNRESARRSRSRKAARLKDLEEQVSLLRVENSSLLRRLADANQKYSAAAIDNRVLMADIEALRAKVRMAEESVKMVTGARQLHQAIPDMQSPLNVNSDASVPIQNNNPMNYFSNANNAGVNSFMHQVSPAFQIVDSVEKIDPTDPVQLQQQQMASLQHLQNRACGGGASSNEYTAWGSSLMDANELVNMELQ
Briefly: protein-binding microarray (RPBM); PBS, 2% BSA, 51.3 ng/ul salmon testes DNA, 50 uM zinc acetate, 200 nM TF, 25 C, 1 h; high values mean tight binding. Conditions: protein: recombinant; tags: N-terminal polyhistidine and DsRed monomer fusion (pET32a); chain copies: 2; label: CyDye5-dUTP incorporated in the synthesized complementary strand; 3' TTTTT single-stranded linker to array surface; dsDNA, one strand shown. In a few lines: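 The binding signal is fluorescence intensity per feature, in arbitrary units, read on an Axon 4000B scanner. Polyhistidine- and DsRed-tagged transcription factors (N-terminal fusions) from E. coli BL21-CodonPlus were purified on Ni–NTA and applied at 200 nM for 1 h at 25 °C to a double-stranded, BSA-blocked custom Agilent array in buffer with 50 µM zinc acetate.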
With “TTCTTTCCGTGATTGGGGCTCGATGCGATGTAGTCTAGTGCGGAGTCACCTAGTGCAG”, the binding signal is 3170 fluorescence intensity (a.u.). Consider “GAATTAACAGTATGTAATACAGTACTACGTGTCTCCCACACGGAGTCACCTAGTGCAG”, for which the binding signal is 4770 fluorescence intensity (a.u.). As for “CCAATTAATCAGGAGTCAATGACTCGCCTCATTTTACCTTCGGAGTCACCTAGTGCAG”, the binding signal was 3320 fluorescence intensity (a.u.). Take “ATTATCATCGTTGTAACTTCATCGTTGTACCTTAGCATAACGGAGTCACCTAGTGCAG”: the binding signal was 14600 fluorescence intensity (a.u.). Take “GCGTGTCCTCGGTGGATGTAGGTTTTGGTGGAAAGGAGGGCGGAGTCACCTAGTGCAG”: the binding signal is 3150 fluorescence intensity (a.u.). Turning to “GACGGCGACGGCCGCCCCGTCGGCGCGGTGTCGCTGGCGCCGGAGTCACCTAGTGCAG”, the binding signal was 3510 fluorescence intensity (a.u.).

For “GCAAATAGCCCAACAAAACTGACGAGGAACATGAACCCGACGGAGTCACCTAGTGCAG”, the binding signal is 3440 fluorescence intensity (a.u.). As for “AAGCTGTTTTCTTCTGACGAGGCTCTCGGACACGCGAAGCCGGAGTCACCTAGTGCAG”, the binding signal was 3360 fluorescence intensity (a.u.). “TAGCTATTGACTTAGCCACGCACACGATATGATGTTTCTACGGAGTCACCTAGTGCAG”: the binding signal was 4100 fluorescence intensity (a.u.). For the sequence “CTTGCCCCGCGCTGAGTCCTTGGCATCTGATGCTTTATCTCGGAGTCACCTAGTGCAG”, the binding signal was 3190 fluorescence intensity (a.u.). In the case of “CGTTTGCATGCATGCACGGTACACGTGGTGTGCATACGTACGGAGTCACCTAGTGCAG”, the binding signal was 8520 fluorescence intensity (a.u.).

For “CCCACCCACCATACACGCATGCGACCCACTGGCACGCGGACGGAGTCACCTAGTGCAG”, the binding signal was 4220 fluorescence intensity (a.u.).

As for “AAGCTCCTTTGCTGAGACAGATTTCCGAGTAGCCGGCGAACGGAGTCACCTAGTGCAG”, the binding signal was 29400 fluorescence intensity (a.u.). For “CAAGTCCTCCTCCTCAGGCCAGCCAGCTCACGCACGCATGCGGAGTCACCTAGTGCAG”, the binding signal is 7370 fluorescence intensity (a.u.).

Take “GCCTAGTTCAATTCACCCGTTTTCTGGCCCAATGGAAATTCGGAGTCACCTAGTGCAG”: the binding signal is 3360 fluorescence intensity (a.u.). Turning to “GCGGGGAGGATGAGGAGGGCTGACTAGTGGGACGACGCGGCGGAGTCACCTAGTGCAG”, the binding signal is 3220 fluorescence intensity (a.u.). On to “ATACCATATGAGCAAATACGCAGGAATCAGTACTGTATTTCGGAGTCACCTAGTGCAG”, for which the binding signal was 39500 fluorescence intensity (a.u.). Take “AGAAAGTACTGTAACGTCGACGTCGATTGGTCAAGGCGCCCGGAGTCACCTAGTGCAG”: the binding signal was 3410 fluorescence intensity (a.u.). As for “GTTCAGAATGTGGTGGCGACGTAAGGTGATTTGGAAGGCGCGGAGTCACCTAGTGCAG”, the binding signal was 43500 fluorescence intensity (a.u.). As for “CAGAATAATGTGATGCGAACACACATCATCAGTATTTGTACGGAGTCACCTAGTGCAG”, the binding signal is 4830 fluorescence intensity (a.u.).

As to “TTCCTTCTCCTTCGTGCGTGTTTTAGCGTGTAACTGCTTCCGGAGTCACCTAGTGCAG”, the binding signal is 3220 fluorescence intensity (a.u.). Next, “AAAATTATCATAATAAATAATTGGAGCTGAATCGAGTAATCGGAGTCACCTAGTGCAG”: 28900 fluorescence intensity (a.u.); “GGGCTACAAATACCCCGGCCACGTGACGCCACCGGATGCACGGAGTCACCTAGTGCAG”: 3740 fluorescence intensity (a.u.).

With “CTCCACCAACCTTGCCACCATTCTGTCCAGTCAAAACTTGCGGAGTCACCTAGTGCAG”, the binding signal was 3990 fluorescence intensity (a.u.). “TGGATCATGCATGCAAGTCACAGCAAGATCATGGCAAACACGGAGTCACCTAGTGCAG”: the binding signal is 3340 fluorescence intensity (a.u.). On to “AAACTTTAGAATCACATGTTACGTGTCACTGATTATAATACGGAGTCACCTAGTGCAG”, for which the binding signal was 7950 fluorescence intensity (a.u.). “TAAACATAAATTTGTCAGATACGTGTATTATTGTTTCACGCGGAGTCACCTAGTGCAG”: the binding signal is 3860 fluorescence intensity (a.u.). For “ACTCTAAATTTAAACTTTTCACTCAATTGAAACTTTTCAACGGAGTCACCTAGTGCAG”, the binding signal is 24700 fluorescence intensity (a.u.). Next, “ACGAGCGCGCCACGTGTACCGCTGGATCTTCGCGCATACGCGGAGTCACCTAGTGCAG”: 15300 fluorescence intensity (a.u.).

As for “TTTGACTTCGGTTTTGGTATACGGCTGAGTCAGCATGAGACGGAGTCACCTAGTGCAG”, the binding signal is 19500 fluorescence intensity (a.u.). As to “GAGACAGGTAGACGAACGAGGTGACGTCACTCCATCGAGCCGGAGTCACCTAGTGCAG”, the binding signal was 17100 fluorescence intensity (a.u.). With “CTCTCTTCAGCTTGCCATATCTCTGTTGTTGACTTGCAAGCGGAGTCACCTAGTGCAG”, the binding signal is 16200 fluorescence intensity (a.u.). In the case of “ACAAAGATATATGAACAAAGTATGAGTCAGTACATTAATGCGGAGTCACCTAGTGCAG”, the binding signal was 7500 fluorescence intensity (a.u.). As to “ATGGGGACGGCGAGGCTGGATACGGCCGTGGACGCGGCGGCGGAGTCACCTAGTGCAG”, the binding signal is 3320 fluorescence intensity (a.u.). Regarding “TGTCCCAGTCTTCATGAGGTGGACAGGTTTCACCCTCTCTCGGAGTCACCTAGTGCAG”, the binding signal is 3240 fluorescence intensity (a.u.). Next, “GGCATAGTATATTTTGACCTGATAATTACAGCCTGACGTGCGGAGTCACCTAGTGCAG”: 4020 fluorescence intensity (a.u.); “TCCGGCGCGCCTCGCCGTCAACCCACGCGGCGGCGCGGCGCGGAGTCACCTAGTGCAG”: 3440 fluorescence intensity (a.u.). For the sequence “TTGGTTGGTCGAGGTTGATCTAACGCAGCCATTAGTCAAACGGAGTCACCTAGTGCAG”, the binding signal was 24700 fluorescence intensity (a.u.). In the case of “CGTGTGTGTGTTGCAGGTTTCACTGCAGTTGCTGGAGTTTCGGAGTCACCTAGTGCAG”, the binding signal was 3560 fluorescence intensity (a.u.). On to “ATGGCGGTTTCGCTGACATGGCGCTTACATGGCGGTGTTGCGGAGTCACCTAGTGCAG”, for which the binding signal is 12800 fluorescence intensity (a.u.).

As to “CATAAGTGCATGGACAATTCCTCTAATGCCATGCACTGCCCGGAGTCACCTAGTGCAG”, the binding signal was 26800 fluorescence intensity (a.u.). In the case of “ACCACGGGGAAACCATGCATCAACACCGTGACGCCACGGTCGGAGTCACCTAGTGCAG”, the binding signal is 3230 fluorescence intensity (a.u.). For “GACGTCACACATTCATCCACGTCATCGATCCGCGGGACAACGGAGTCACCTAGTGCAG”, the binding signal is 11900 fluorescence intensity (a.u.). Then “AACAACCCAACCCAACCGATGCGCGACGCAGTGACGCAGGCGGAGTCACCTAGTGCAG”, with 4930 fluorescence intensity (a.u.); and “CGTCGCCGGCACGGCAGAGCACAAGACGTGGATGTCCAAGCGGAGTCACCTAGTGCAG”, with 4310 fluorescence intensity (a.u.); and “ACTCATATAGTGTGGTCATACTGAGTCACTGATCAACCAACGGAGTCACCTAGTGCAG”, with 8810 fluorescence intensity (a.u.). With “TGGATTTCAGGTAAACAAACGGTTACCGCGATAACTGTTTCGGAGTCACCTAGTGCAG”, the binding signal is 3350 fluorescence intensity (a.u.).

On to “ATCCCTACTCGCTCCTCGTCCACGCCACTTCAGTAGGTTGCGGAGTCACCTAGTGCAG”, for which the binding signal was 4890 fluorescence intensity (a.u.).

“CATCCTAACGGATTATTCTCTCAACCCCACGAACCATTCACGGAGTCACCTAGTGCAG”: the binding signal is 19200 fluorescence intensity (a.u.). As to “ACAAACGATATACGTATATCCACGCAACGAAAGATTTGTTCGGAGTCACCTAGTGCAG”, the binding signal was 3460 fluorescence intensity (a.u.). Turning to “GACTAATTGGTGGATGCATGAACCGACGTGTCGATTTTCACGGAGTCACCTAGTGCAG”, the binding signal is 4510 fluorescence intensity (a.u.). Then “GGCTCGCAGAAAGGCGGACGACAAGGGCTCAGCAGGGTCACGGAGTCACCTAGTGCAG”, with 39500 fluorescence intensity (a.u.).

Regarding “ACCAACAGGGCCGGCCCACGAGCCGCCACGCCGCACGCGACGGAGTCACCTAGTGCAG”, the binding signal was 3230 fluorescence intensity (a.u.). Next, “CCCATTATCCATAAGTTAACATATACTCCCTCCGTCATAGCGGAGTCACCTAGTGCAG”: 3800 fluorescence intensity (a.u.).
